Test results taken from publication PMC4962485.
These are yes or no findings as the source states them, for the method shown. In cells and extracts the contact can be indirect. Some results given as binding are weak or reduced against the parent protein; the word gives no strength.

Amino acid sequences for entries named in this document (tags omitted).
UniProt A0ACM8Q5W3: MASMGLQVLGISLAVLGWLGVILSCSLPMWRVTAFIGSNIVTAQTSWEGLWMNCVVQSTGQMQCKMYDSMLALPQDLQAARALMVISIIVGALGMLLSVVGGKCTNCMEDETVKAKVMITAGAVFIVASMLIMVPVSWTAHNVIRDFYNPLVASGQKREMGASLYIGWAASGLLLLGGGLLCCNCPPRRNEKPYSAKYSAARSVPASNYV
UniProt A0A0G2K2P5: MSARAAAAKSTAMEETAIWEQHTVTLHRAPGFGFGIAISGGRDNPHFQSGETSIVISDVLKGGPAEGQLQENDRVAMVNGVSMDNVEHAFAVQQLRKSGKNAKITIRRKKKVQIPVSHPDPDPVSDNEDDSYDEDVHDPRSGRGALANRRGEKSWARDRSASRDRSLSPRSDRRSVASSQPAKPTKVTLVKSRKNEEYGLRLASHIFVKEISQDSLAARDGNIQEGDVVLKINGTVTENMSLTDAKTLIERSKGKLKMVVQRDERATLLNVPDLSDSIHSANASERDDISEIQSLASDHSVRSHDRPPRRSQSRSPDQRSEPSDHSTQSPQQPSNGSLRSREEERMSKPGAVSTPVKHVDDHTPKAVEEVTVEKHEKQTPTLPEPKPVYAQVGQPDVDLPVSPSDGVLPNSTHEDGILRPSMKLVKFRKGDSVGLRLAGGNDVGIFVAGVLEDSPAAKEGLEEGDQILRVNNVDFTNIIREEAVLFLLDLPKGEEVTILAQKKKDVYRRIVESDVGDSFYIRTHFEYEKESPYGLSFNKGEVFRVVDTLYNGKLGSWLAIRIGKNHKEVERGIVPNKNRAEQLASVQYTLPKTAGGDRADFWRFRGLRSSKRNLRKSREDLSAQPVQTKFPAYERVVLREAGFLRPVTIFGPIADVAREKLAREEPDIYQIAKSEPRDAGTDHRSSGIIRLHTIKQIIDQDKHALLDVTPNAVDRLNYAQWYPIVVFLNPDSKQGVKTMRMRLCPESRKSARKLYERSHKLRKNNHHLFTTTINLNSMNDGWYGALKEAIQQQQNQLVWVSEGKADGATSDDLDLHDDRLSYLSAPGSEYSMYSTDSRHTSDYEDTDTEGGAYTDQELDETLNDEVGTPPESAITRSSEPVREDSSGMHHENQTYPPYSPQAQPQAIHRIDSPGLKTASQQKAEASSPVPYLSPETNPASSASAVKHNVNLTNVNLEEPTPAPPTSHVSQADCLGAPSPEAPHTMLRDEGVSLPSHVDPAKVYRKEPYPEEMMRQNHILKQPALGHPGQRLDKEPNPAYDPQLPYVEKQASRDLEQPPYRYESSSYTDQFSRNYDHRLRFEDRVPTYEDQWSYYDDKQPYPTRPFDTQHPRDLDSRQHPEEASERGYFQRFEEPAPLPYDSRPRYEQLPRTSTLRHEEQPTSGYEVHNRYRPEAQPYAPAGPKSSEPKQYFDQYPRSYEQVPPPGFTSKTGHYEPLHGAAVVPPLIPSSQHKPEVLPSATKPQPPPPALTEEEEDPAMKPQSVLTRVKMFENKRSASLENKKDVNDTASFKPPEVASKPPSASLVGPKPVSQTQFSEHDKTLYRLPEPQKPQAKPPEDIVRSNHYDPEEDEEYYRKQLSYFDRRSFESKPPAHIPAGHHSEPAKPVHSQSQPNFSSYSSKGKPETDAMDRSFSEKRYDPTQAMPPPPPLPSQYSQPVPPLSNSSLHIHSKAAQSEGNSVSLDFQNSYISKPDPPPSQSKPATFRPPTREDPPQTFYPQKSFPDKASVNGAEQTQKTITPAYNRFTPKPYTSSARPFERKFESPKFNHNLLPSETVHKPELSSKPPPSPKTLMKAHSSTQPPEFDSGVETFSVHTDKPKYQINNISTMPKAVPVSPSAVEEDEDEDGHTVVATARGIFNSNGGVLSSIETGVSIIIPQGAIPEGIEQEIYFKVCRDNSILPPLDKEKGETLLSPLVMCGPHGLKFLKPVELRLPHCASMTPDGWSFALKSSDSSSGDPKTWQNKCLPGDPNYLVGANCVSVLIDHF

T1: claudin-5 (rat (endogenous in primary alveolar epithelial cells)) (UniProt Q9JKD6)
T1 sequence: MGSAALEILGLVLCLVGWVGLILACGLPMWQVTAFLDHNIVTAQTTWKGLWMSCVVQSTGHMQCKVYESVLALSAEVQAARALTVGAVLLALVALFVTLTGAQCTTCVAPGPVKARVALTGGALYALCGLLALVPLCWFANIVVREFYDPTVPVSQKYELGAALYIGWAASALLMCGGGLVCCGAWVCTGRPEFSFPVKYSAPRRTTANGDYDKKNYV


Columns and labels:
[1] = biological target: T1, claudin-5 (rat (endogenous in primary alveolar epithelial cells)); test: co-IP; primary rat AECs, 6 days on Transwell supports; lysed in DPBS with Ca2+/Mg2+ and 0.1% Triton X-100, sonicated; precleared supernatant with antibody on protein A magnetic beads overnight at 4 °C; immunoblot
[2] = biological target: T1, claudin-5 (rat (endogenous in primary alveolar epithelial cells)); test: proximity ligation; primary rat AECs from control- or alcohol-fed rats, 6 days on Transwell supports, fixed with methanol/acetone; pairs of mouse and rabbit primary antibodies, Duolink detection Kit Red; number of clusters above threshold counted
[3] = biological target: zonula occludens 1 (rat (endogenous in primary alveolar epithelial cells)); test: as above

binding [1]	binding [2]	binding [3]	Molecule
binds			claudin-4 (from UniProt A0ACM8Q5W3 1-210)
binds	binds		zonula occludens 1 (from UniProt A0A0G2K2P5 1-1765)
binds	binds	binds	claudin-18 (protein, UniProt Q5I0E5 1-261) MATTTCQVVGLLLSLLGLAGCIAATGMDMWSTQDLYDNPVTSVFQYEGLWRSCVQQSSGFTECRPYFTILGLPAMLQAVRALMIVGIVLGVIGILVSIFALKCIRIGSMDDSAKAKMTLTSGIMFIISGVCAIIGVSVFANMLVTNFWMSTANMYSGMGGMVQTVQTRYTFGAALFVGWIAGGLTLIGGVMMCIACRGLTPDDRNFKAVSYHASGQNVAYKPGGFKASTGFGSNARNKKIYDGGARTEDDEQSHPTKYDYV
